# Data reported in patent publication US20170020838A1, “TREATMENT FOR RESPIRATORY DISEASE” (MUCOKINETICA LIMITED, priority 2014, published 2017).
# Some entries share one result that the patent states for a list of compounds.
# Tested on: ciliary transport of pig airway mucus secretions on the ex vivo pig trachea
# Experiment: Ciliary transport of mucus secretions (tracheal mucus velocity) on ex vivo normal pig trachea
# Settings: Class 2
# Experimental: The lumen of each trachea was cleaned by gentle irrigation with BSS. Tracheas were opened longitudinally with scissors along the posterior aspect and mounted with the posterior aspect upwards in a moist air-tight box. An aliquot of pig airway mucus approximately 3 mm diameter was placed on the mucosal surface close to the distal end of each trachea. Tracheal mucus velocity (TMV mm/min) was measured by recording the distance moved, towards the laryngeal end of the trachea, in a given time. At the start of the study three measurements of TMV were made for each trachea to establish a baseline rate for the trachea. Solutions were then pipetted onto the luminal mucosal surface of tracheas for 10 min; BSS control tracheas (open circles; n=6); 10^−4 M amiloride in BSS (closed squares; n=6). Excess solution was then tipped off the mucosal surface and measurement of TMV repeated. TMV results at each time point are expressed as % of the baseline TMV, ciliary transport index (mean±SD).
# Pig tracheas (from larynx to carina) from normal wild type animals were obtained from a local abattoir or Veterinary University. […] Tracheal mucus velocity (TMV mm/min) was measured by recording the distance moved, towards the laryngeal end of the trachea, in a given time. […] TMV results at each time point are expressed as % of the baseline TMV, ciliary transport index (mean±SD).
compound,measurement,value
"O=C([O-])[C@H](O)[C@@H](O)[C@H](O)[C@H](O)CO.[Na+] [hyperosmotic sodium gluconate, sodium gluconate]",return to control transport rate (class summary),≤ 4 h
